For the assay, the system named is Candida albicans. Put plainly: Antifungal activity against Candida albicans after 16 to 20 hrs by broth micro-dilution method. It counts as functional, organism-based. On the technique in general: Broth dilution looks for growth in wells or tubes with falling amounts of substance.

A word on the MIC: it is the lowest concentration found to suppress growth. NYSTATIN: the MIC amounted to 0.97 µg/mL.

The values are drawn from ChEMBL document CHEMBL3396966, “In vitro studies of antimicrobial activity of Gly-His-Lys conjugates as potential and promising candidates for therapeutics in skin and tissue infections” (2015).
